{"source": "patent US10172837B2", "about": "“Insulin sensitisers and methods of treatment” (NAIA Metabolic, Inc., priority 2007, dated 2019)", "tested_on": "Diet-Induced Obese (DIO) Mice", "experiment": "Fasting plasma glucose in diet-induced obese mice", "format": "in vivo, Mus Musculus", "data": [{"molecule": "NS(=O)(=O)c1cc(C(=O)O)c(NCc2ccco2)cc1Cl", "note": "[Furosemide]", "values": [{"measurement": "effect on fasting plasma glucose levels of diet-induced obese mice", "result": "no beneficial effect"}]}]}
